In PubChem BioAssay AID445 (National Center for Advancing Translational Sciences (NCATS), 2006) one finds AC50 data, which are given here for 62 molecules.

A word on the AC50: it is the concentration giving half of the maximal activity seen.

SMILES strings stand for the structures. The list shows a part of the results. Further columns of the screen follow, without active or inactive calls. The list favours compounds with an active or inconclusive main result. The note in brackets gives the kind of curve behind each potency; many fits are weak.

This assay can be described thus: IkB Signaling. As to conditions: ABC-DLBCL IkBa-CBG/CBR dual luciferase ratio (green luciferase fused to IkBa over red control in OCI-Ly3 lymphoma cells), 4 h; measured here: control luc red channel unless noted. The procedure, abridged:
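In this assay, an IκBα–CBG68 fusion accumulates when IKK-driven degradation is blocked; native CBR normalizes for cell number. OCI-Ly3 cells were treated 4 h with compound and doxycycline, then green and red light read after Chroma-Glo addition.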
Turning to `COc1ccc(-c2nc3cc(C)ccn3c2NC(=O)c2ccc(C)c(C)c2)cc1`, the AC50 is 20 µM [falling, partial curve, poor fit].
Next, `COc1ccc(-n2c(=O)c3c4c(sc3n(Cc3ccccc3Cl)c2=O)CCC4)c(OC)c1`: 5.01 µM [falling, single point].
To `Cc1cccc(OCC(=O)Nc2ccccc2OCc2cc(=O)n3ccccc3n2)c1` belongs 3.16 µM [falling, partial curve]; to `CC1CCN(S(=O)(=O)c2cc(C(=O)NCc3ccccc3)n(C)c2)CC1`, 20 µM [falling, partial curve].
Next, `COc1cc2ncc3c(-c4ccccc4)nn(CC(=O)NC4CCCCC4)c3c2cc1OC`: 0.0794 µM [falling, full curve]; `c1cc(-c2noc(CC3CCCCC3)n2)ccn1`: 2.51 µM [rising, full curve, poor fit].
As to `CN(C(=O)c1ccc2c(c1)N(Cc1ccc(F)cc1)C(=O)c1ccccc1S2(=O)=O)C1CCCCC1`, the half-maximal activity concentration (AC50) was 15.8 µM [falling, partial curve].
For the molecule `CCOCCCn1c(=N)c(C(=O)NC(C)c2ccccc2)cc2c(=O)n3cccc(C)c3nc21` (configuration not stated), the AC50 was 0.0126 µM [falling, full curve, poor fit].
On to `Fc1cccc(-c2nnn3c2nc(NCc2ccc4c(c2)OCO4)c2ccccc23)c1`, for which the concentration at half-maximal activity (AC50) is 0.501 µM [falling, full curve].
Next, `COC(=O)c1ccc(-c2nc(-c3ccc(OC)c(OC)c3)no2)cc1`: 5.01 µM [falling, partial curve]; `O=C(c1ccc2c(c1)N(Cc1ccc(Cl)cc1)C(=O)c1ccccc1S2(=O)=O)N1CCN(Cc2ccccc2)CC1`: 12.6 µM [falling, partial curve]; `Cc1cc(C)cc(NC(=O)CCc2c(C)nc3c(c2C)c(=O)n(C)c(=O)n3C)c1`: 15.8 µM [falling, partial curve].
Next, `Cc1ccc(CCNC(=O)CCn2nc(-c3ccc(Cl)cc3)ccc2=O)cc1`: 0.316 µM [falling, single point]; `O=S(=O)(c1ccc(Br)cc1)c1nnn2c1nc(NCCc1ccccc1)c1sccc12`: 5.01 µM [falling, full curve]; `Cc1nc2ccc(S(=O)(=O)NC(C(=O)N3CCN(c4cccc(Cl)c4)CC3)C(C)C)cc2s1` (configuration not stated): 12.6 µM [falling, partial curve].
Next, `Cc1ccc(-c2onc(C)c2C)cc1S(=O)(=O)Nc1cccc(Cl)c1C`: 31.6 µM [falling, single point]; `COc1ccc(N2C(=O)CCSC23C(=O)N(Cc2ccc(F)cc2)c2ccccc23)cc1` (configuration not stated): 39.8 µM [falling, single point]; `O=C(/C=C\Nc1ccc2c(c1)OCO2)c1ccccn1`: 1.26 µM [falling, full curve].
On to `CC(=O)c1ccc(C(=O)N(Cc2cccnc2)c2nc3c(C)c(C)ccc3s2)cc1`, for which the concentration at half-maximal activity (AC50) was 25.1 µM [falling, partial curve].
Next, `CCOC(=O)N1CCN(C(=O)c2ccc3c(c2)N(Cc2cccc(Cl)c2)C(=O)c2ccccc2S3=O)CC1` (configuration not stated): 0.398 µM [falling, partial curve]; `CN(C)S(=O)(=O)N1CCN(CC(O)COc2ccc3cc(Br)ccc3c2)CC1` (configuration not stated): 5.01 µM [falling, partial curve].
To `Cc1ccc(-c2nc3ccccn3c2Nc2ccc3c(c2)OCCO3)o1` belongs 12.6 µM [falling, partial curve]; to `O=C1CN(C(=O)COc2ccc(Cl)cc2)C(c2ccc(F)cc2)c2cc(Cl)ccc2N1` (configuration not stated), 20 µM [falling, partial curve]; to `CCc1ccc(CN(C(=O)Nc2cccc(Cl)c2)c2ccccn2)cc1`, 0.501 µM [rising, full curve].
To `COC(=O)c1nc2n(n1)C(c1cc(OC)ccc1OC)C=C(c1ccc(Br)cc1)N2` (configuration not stated) belongs 25.1 µM [falling, single point].
`O=C(c1ccccc1F)N1c2nc(-c3ccco3)nn2C2(CCCCC2)[C@@H]2CCCC[C@@H]21`: the AC50 was 15.8 µM [falling, single point].
On to `Cc1c(Cl)cccc1NS(=O)(=O)c1ccc(NS(=O)(=O)c2ccc3c(c2)OCCO3)cc1`, for which the AC50 was 25.1 µM [falling, partial curve].
Next, `CC(C)Oc1ccccc1C1CC(=O)Nc2cc3c(cc21)OCCO3` (configuration not stated): 5.01 µM [falling, partial curve]; `Cc1cccc(N2CCN(C(=O)c3cccn3-c3nnc(N4CCCCC4)s3)CC2)c1C`: 39.8 µM [falling, single point].
To `CCc1cccc(C)c1NC(=O)c1cc(S(=O)(=O)N2CCCCCC2)cn1C` belongs 2.51 µM [falling, full curve, poor fit]; to `COc1ccc(-c2cc(C(F)(F)F)nc(SCCC(=O)Nc3cccc(OC)c3)n2)cc1`, 20 µM [falling, partial curve, poor fit].
To `COc1ccccc1N1CCN(S(=O)(=O)CCNC(=O)COc2ccccc2F)CC1` belongs 5.01 µM [falling, partial curve]; to `O=C(CCCn1c(=O)c2sccc2n(Cc2ccc(Cl)cc2)c1=O)NCc1ccc2c(c1)OCO2`, 10 µM [falling, partial curve]; to `CCOC(=O)c1ccccc1NC(=O)c1cc2c(s1)-c1ccccc1SC2`, 1 µM [falling, full curve].
`COc1ccc(Br)cc1CNC(=O)CCc1cn(Cc2ccc(C)cc2)c2ccccc12`: the AC50 is 10 µM [falling, partial curve].
Next, `Cc1scc(CN2CCN(c3ccc(F)cc3)CC2)c1C`: 15.8 µM [falling, single point].
To `Cc1nc(SCc2nc3ccccc3[nH]2)c2oc3ccccc3c2n1` belongs 15.8 µM [falling, partial curve].
With `CC(C)c1ccc(NC(=O)CN2C(=O)CSc3ccc(S(=O)(=O)N4CCCC4)cc32)cc1`, the AC50 was 39.8 µM [falling, single point].
To `N#Cc1ccc(NC(=O)Nc2ccc(Cl)cc2)cc1` belongs 7.94 µM [falling, full curve, poor fit]; to `CC(C)CC(NC(=O)C1CCCCC1)C(=O)Nc1cccc(C(F)(F)F)c1` (configuration not stated), 20 µM [falling, partial curve, poor fit]; to `COc1ccc(N=c2oc3cc(O)ccc3cc2C(=O)NCC2CCCO2)cc1` (configuration not stated), 0.2 µM [falling, full curve].
To `Cc1ccc(NC(=O)c2sc3nc(-c4ccncc4)ccc3c2N)cc1` belongs 0.0398 µM [falling, full curve].
With `CCOc1ccc(S(=O)(=O)c2c(C(=O)c3ccc(C)c(C)c3)cnc3ccccc23)cc1`, the AC50 was 20 µM [falling, partial curve, poor fit].
Consider `Cc1ccc(CNC(=O)CCc2nnc3n(C)c(=O)c4sccc4n23)cc1`, for which the AC50 was 31.6 µM [falling, single point].
Take `CCOC(=O)c1ccc(Nc2nnc(C(C)(C)C)c(=O)[nH]2)cc1`: the AC50 is 2 µM [falling, full curve].
Next, `CC(=O)Nc1ccc(Nc2c(CCC(C)C)c(C)c(C#N)c3nc4ccccc4n23)cc1`: 31.6 µM [falling, partial curve]; `CCc1ccc2nc(NC(=O)CSCc3c(C)noc3C)sc2c1`: 25.1 µM [falling, partial curve]; `COC(=O)c1sccc1S(=O)(=O)N(CC(=O)Nc1ccc(C)c(F)c1)c1ccc(C)c(C)c1`: 5.01 µM [falling, partial curve].
With `Cc1onc(-c2ccccc2Cl)c1C(=O)Nc1cccc(-c2nc3ncccn3c2C)c1`, the half-maximal activity concentration (AC50) is 12.6 µM [falling, partial curve].
To `COc1ccc(-c2cc(C(C)=O)c(C)n2CCC(=O)Nc2ccc(C)c(Cl)c2)cc1` belongs 39.8 µM [falling, single point].
To `COc1ccc(NC(=O)CCn2c(-c3ccc(F)cc3)cc(C(C)=O)c2C)c(OC)c1` belongs 0.398 µM [rising, partial curve]; to `CCCNc1ncnc2c1c(-c1ccccc1)cn2-c1ccc(OCC)cc1`, 31.6 µM [falling, partial curve]; to `COC(=O)CSc1nnc(CNc2ccc(Cl)cc2)n1Cc1ccccc1`, 10 µM [falling, partial curve].
Consider `CCCOc1ccc(C(=O)Nc2ccc(-c3cc4ccccc4oc3=O)c(C)c2)cc1`, for which the AC50 was 3.16 µM [falling, full curve].
Next, `Cc1ccc(NC(=O)c2c(C)oc3ccc(O)c(CN(C)Cc4ccccc4)c23)c(C)c1`: 12.6 µM [falling, partial curve].
To `CCc1ccc(Nc2nnc(-c3cc4cc(OC)ccc4oc3=O)s2)cc1` belongs 5.01 µM [rising, full curve].
In the case of `CCc1c(C)nc(SCc2nc(-c3ccccc3C)no2)[nH]c1=O`, the AC50 was 31.6 µM [falling, single point].
Next, `Cc1ccc(NC(=O)C2CCCN2S(=O)(=O)c2ccc3c(c2)C(C)(C)C(=O)N3C)cc1` (configuration not stated): 25.1 µM [falling, single point]; `COc1ccc(-c2cc(OC)c3c(C)oc(C)c3c(=O)c2)cc1OC`: 39.8 µM [falling, single point].
Next, `Cc1ccccc1-n1c(SCc2ccccn2)nc2n[nH]c(C)c2c1=N`: 15.8 µM [falling, partial curve].
To `COc1ccc(-c2cc(C)no2)cc1S(=O)(=O)NC1CCC(C)CC1` (configuration not stated) belongs 10 µM [falling, partial curve]; to `CCOc1ccc(-n2ccnc2SCC(=O)Nc2ccc3c(c2)OCO3)cc1`, 25.1 µM [falling, single point].
